According to PubChem BioAssay AID330 (DTP/NCI, 2004):
The list shows only some results of the screen, not a fair sample: it gathers tests that were run many times, whatever their T/C, doses with no T/C, and many T/C values between a quarter and a half above the control. Other doses and runs of a compound stand elsewhere. T/C is the treated group as % of the vehicle group. Some entries give survivors of the animals treated and no T/C: the source holds a T/C of zero for them, seemingly a mark for toxic or unscored doses. Some survivor counts are full or nearly so, which does not show that the dose was tolerated: the source hardly ever lists a survival T/C far under the control, and the zero likely stands for such cases as well. Counts of survivors are from the toxicity check (mostly the fifth day) where no day follows; animals may have died later. Schedules are NCI's codes, taken here to give the interval after Q, in days (D) or hours (H), and the number of doses after X. Where survival is the endpoint, the PubChem record calls one and a half times the control and up active, and a quarter to a half above the control has no call in these data; cut-offs in other NCI protocols can differ. Some T/C values are followed by the survivors on the day toxicity was checked, most often the fifth; where none is given, no animal had died by that day. Some entries hold several experiments; the values are given in rising order. Signs of the kind (2×) stand for listed records that agree.

Test system: P388 leukemia ip, CD2F1 mice, survival T/C
Assay: NCI In Vivo Anticancer Drug Screen. Data for tumor model P388 Leukemia (intraperitoneal) in CD2F1 (CDF1) mice
Settings: T/C endpoint: median survival time, higher T/C = longer survival
[1] = dose: 12.5 mg/kg/injection, schedule: Q01DX009 (ip), vehicle: saline
[2] = dose: 200.0 mg/kg/injection, schedule: Q01DX005 (ip), vehicle: saline with Tween-80

Nc1ncn(C2OC(CO)C(O)C2O)c(=O)n1 (centres undefined)
T/C (dose: 0.5 mg/kg/injection, schedule: Q01DX005 (ip), vehicle: water): 136 % of control | T/C (dose: 2.0 mg/kg/injection, schedule: Q01DX005 (ip), vehicle: saline, evaluated on day 30): 198 % of control | T/C (dose: 2.0 mg/kg/injection, schedule: Q01DX005 (ip), vehicle: saline, evaluated on day 35): 167 and 181 % of control | T/C (dose: 2.0 mg/kg/injection, schedule: Q01DX005 (ip), vehicle: saline, evaluated on day 45): 171 % of control | T/C (dose: 3.0 mg/kg/injection, schedule: Q01DX009 (ip), vehicle: saline, evaluated on day 5): 246 % of control | T/C (dose: 3.0 mg/kg/injection, schedule: Q01DX009 (ip), vehicle: saline, evaluated on day 30): 162 and 227 % of control | T/C (dose: 3.0 mg/kg/injection, schedule: Q01DX009 (ip), vehicle: saline, evaluated on day 60): 273 % of control | T/C (dose: 4.0 mg/kg/injection, schedule: Q01DX005 (ip), vehicle: saline, evaluated on day 30): 243 % of control | T/C (dose: 4.0 mg/kg/injection, schedule: Q01DX005 (ip), vehicle: saline, evaluated on day 35): 220 [7 of 8 alive] and 235 % of control | T/C (dose: 4.0 mg/kg/injection, schedule: Q01DX005 (ip), vehicle: saline, evaluated on day 45): 214 % of control | T/C (dose: 5.18 mg/kg/injection, schedule: Q04DX002 (ip), vehicle: saline): 146 % of control | survivor count [1]: 5 of 6 | survivor count (dose: 16.0 mg/kg/injection, schedule: Q01DX005 (ip), vehicle: saline): 8 of 8 | T/C (dose: 30.0 mg/kg/injection, schedule: Q01DX009 (ip), vehicle: saline, evaluated on day 30): 262 % of control | T/C (dose: 30.0 mg/kg/injection, schedule: Q01DX009 (ip), vehicle: saline, evaluated on day 45): 204, 235, 250, 260, 273 % of control | T/C (dose: 30.0 mg/kg/injection, schedule: Q01DX009 (ip), vehicle: saline, evaluated on day 60): 226 [8 of 10 alive] and 262 % of control | T/C (dose: 44.0 mg/kg/injection, schedule: Q01DX009 (ip), vehicle: saline, evaluated on day 30): 265 % of control | T/C (dose: 44.0 mg/kg/injection, schedule: Q01DX009 (ip), vehicle: saline, evaluated on day 45): 216, 246, 266, 267, 269 % of control (2×) | T/C (dose: 44.0 mg/kg/injection, schedule: Q01DX009 (ip), vehicle: saline, evaluated on day 48): 229 % of control | T/C (dose: 44.0 mg/kg/injection, schedule: Q01DX009 (ip), vehicle: saline, evaluated on day 60): 217, 231, 286, 287 % of control | T/C (dose: 49.0 mg/kg/injection, schedule: Q01DX001 (ip), vehicle: saline): 148 % of control | T/C (dose: 67.0 mg/kg/injection, schedule: Q01DX009 (ip), vehicle: saline, evaluated on day 30): 278 % of control | T/C (dose: 67.0 mg/kg/injection, schedule: Q01DX009 (ip), vehicle: saline, evaluated on day 45): 158, 248, 284, 289, 298, 301 % of control | T/C (dose: 67.0 mg/kg/injection, schedule: Q01DX009 (ip), vehicle: saline, evaluated on day 48): 241 % of control | T/C (dose: 67.0 mg/kg/injection, schedule: Q01DX009 (ip), vehicle: saline, evaluated on day 60): 240, 240 [9 of 10 alive], 278, 299 % of control | T/C (dose: 100.0 mg/kg/injection, schedule: Q01DX009 (ip), vehicle: saline, evaluated on day 30): 131 and 292 % of control | T/C (dose: 100.0 mg/kg/injection, schedule: Q01DX009 (ip), vehicle: saline, evaluated on day 45): 110, 214, 282, 298, 306, 314 % of control | T/C (dose: 100.0 mg/kg/injection, schedule: Q01DX009 (ip), vehicle: saline, evaluated on day 48): 268 % of control | T/C (dose: 100.0 mg/kg/injection, schedule: Q01DX009 (ip), vehicle: saline, evaluated on day 60): 271, 274, 310, 316 % of control | T/C (dose: 150.0 mg/kg/injection, schedule: Q01DX009 (ip), vehicle: saline, evaluated on day 30): 275 % of control | T/C (dose: 150.0 mg/kg/injection, schedule: Q01DX009 (ip), vehicle: saline, evaluated on day 45): 111, 141, 243, 302, 306, 312 % of control | T/C (dose: 150.0 mg/kg/injection, schedule: Q01DX009 (ip), vehicle: saline, evaluated on day 48): 284 % of control | T/C (dose: 150.0 mg/kg/injection, schedule: Q01DX009 (ip), vehicle: saline, evaluated on day 60): 272, 275, 302 % of control

COC(CNCC(OC)OC)OC
survivor count (dose: 12.5 mg/kg/injection, schedule: Q01DX009 (ip), vehicle: water): 6 of 6 | survivor count (dose: 25.0 mg/kg/injection, schedule: Q01DX009 (ip), vehicle: water): 6 of 6 | survivor count (dose: 50.0 mg/kg/injection, schedule: Q01DX009 (ip), vehicle: water): 6 of 6 | survivor count (dose: 200.0 mg/kg/injection, schedule: Q01DX009 (ip), vehicle: water): 6 of 6

CCNc1ccc2c(c1)C(=O)N(OS(C)(=O)=O)C2=O
survivor count [2]: 2 of 6

CC1=C(C)C(=O)C(C(C)(C)CC(=O)Sc2ncnc3nc[nH]c23)=C(C)C1=O
T/C (dose: 400.0 mg/kg/injection, schedule: Q04DX002 (ip), vehicle: saline with Tween-80): 125 % of control

C(COCC1CO1)OCC1CO1 (centres undefined)
T/C (dose: 25.0 mg/kg/injection, schedule: Q01DX009 (ip), vehicle: saline): 125 % of control

C1=CN2CC(c3ccccc3)=NNC2c2ccccc21 (centres undefined)
survivor count (dose: 400.0 mg/kg/injection, schedule: Q04DX002 (ip), vehicle: Klucel (hydroxypropylcellulose) (HPC)): 0 of 6

COc1ccccc1N=Cc1ccc(C=Nc2ccccc2OC)cc1
survivor count (dose: 50.0 mg/kg/injection, schedule: Q01DX009 (ip), vehicle: Klucel (hydroxypropylcellulose) (HPC)): 6 of 6 | survivor count (dose: 100.0 mg/kg/injection, schedule: Q01DX009 (ip), vehicle: Klucel (hydroxypropylcellulose) (HPC)): 6 of 6

C[n+]1c(C2(C)CCCO2)sc2ccccc21 (centres undefined)
survivor count (dose: 120.0 mg/kg/injection, schedule: Q01DX005 (ip), vehicle: saline): 0 of 6 | survivor count (dose: 240.0 mg/kg/injection, schedule: Q01DX005 (ip), vehicle: saline): 0 of 6

COc1cccc2c1oc1c3ccc(O)cc3oc(=O)c21
survivor count (dose: 12.5 mg/kg/injection, schedule: Q01DX007 (ip), vehicle: carboxymethylcellulose (CMC)): 5 of 5 | survivor count (dose: 25.0 mg/kg/injection, schedule: Q01DX007 (ip), vehicle: carboxymethylcellulose (CMC)): 5 of 5

NC(=O)c1csc(-c2ccc(CO)o2)n1
survivor count [2]: 5 of 5

N#CC(=Nc1ccc(F)cc1F)C1=C(O)c2ccccc2C1=O
survivor count (dose: 100.0 mg/kg/injection, schedule: Q01DX005 (ip), vehicle: saline with Tween-80): 1 of 5 | survivor count [2]: 0 of 5

C[CH2][Ge]([CH2]C)[O]C(=O)C(=O)[O][Ge]([CH2]C)[CH2]C
survivor count (dose: 50.0 mg/kg/injection, schedule: Q01DX005 (ip), vehicle: Klucel (hydroxypropylcellulose) (HPC)): 0 of 6 | survivor count (dose: 100.0 mg/kg/injection, schedule: Q01DX005 (ip), vehicle: Klucel (hydroxypropylcellulose) (HPC)): 0 of 6 | survivor count (dose: 200.0 mg/kg/injection, schedule: Q01DX005 (ip), vehicle: Klucel (hydroxypropylcellulose) (HPC)): 0 of 6

Clc1ccc(-c2nnc(-c3cccc(Cl)n3)o2)c(Cl)c1
survivor count (dose: 175.0 mg/kg/injection, schedule: Q01DX005 (ip), vehicle: saline with Tween-80): 6 of 6

Cc1cc(=O)n2c(nc3cc(C)c(C)cc32)s1
survivor count (dose: 200.0 mg/kg/injection, schedule: Q01DX009 (ip), vehicle: Klucel (hydroxypropylcellulose) (HPC)): 6 of 6

O=C1NN2CCN=C2c2cccnc21
survivor count (dose: 30.0 mg/kg/injection, schedule: Q01DX005 (ip), vehicle: saline with Tween-80): 3 of 6 | survivor count (dose: 60.0 mg/kg/injection, schedule: Q01DX005 (ip), vehicle: saline with Tween-80): 0 of 6 | survivor count (dose: 120.0 mg/kg/injection, schedule: Q01DX005 (ip), vehicle: saline with Tween-80): 0 of 6 | survivor count (dose: 240.0 mg/kg/injection, schedule: Q01DX005 (ip), vehicle: saline with Tween-80): 0 of 6

CCCCCCCCCCCC[N+]1(CC)CCCC1
survivor count (dose: 0.78 mg/kg/injection, schedule: Q01DX009 (ip), vehicle: saline): 4 of 6 | survivor count [1]: 2 of 6 | survivor count (dose: 50.0 mg/kg/injection, schedule: Q01DX009 (ip), vehicle: saline): 0 of 6 | survivor count (dose: 100.0 mg/kg/injection, schedule: Q01DX009 (ip), vehicle: saline): 0 of 6 | survivor count (dose: 200.0 mg/kg/injection, schedule: Q01DX009 (ip), vehicle: saline): 0 of 6
